Experimental data from the supplement of paper PMC10849652.
Some of the results follow.

Sequences of proteins named here, by UniProt entry; tags and fusion partners are left off. A change or cut given only in a name is not applied to a line headed by its entry.
UniProt Q16512: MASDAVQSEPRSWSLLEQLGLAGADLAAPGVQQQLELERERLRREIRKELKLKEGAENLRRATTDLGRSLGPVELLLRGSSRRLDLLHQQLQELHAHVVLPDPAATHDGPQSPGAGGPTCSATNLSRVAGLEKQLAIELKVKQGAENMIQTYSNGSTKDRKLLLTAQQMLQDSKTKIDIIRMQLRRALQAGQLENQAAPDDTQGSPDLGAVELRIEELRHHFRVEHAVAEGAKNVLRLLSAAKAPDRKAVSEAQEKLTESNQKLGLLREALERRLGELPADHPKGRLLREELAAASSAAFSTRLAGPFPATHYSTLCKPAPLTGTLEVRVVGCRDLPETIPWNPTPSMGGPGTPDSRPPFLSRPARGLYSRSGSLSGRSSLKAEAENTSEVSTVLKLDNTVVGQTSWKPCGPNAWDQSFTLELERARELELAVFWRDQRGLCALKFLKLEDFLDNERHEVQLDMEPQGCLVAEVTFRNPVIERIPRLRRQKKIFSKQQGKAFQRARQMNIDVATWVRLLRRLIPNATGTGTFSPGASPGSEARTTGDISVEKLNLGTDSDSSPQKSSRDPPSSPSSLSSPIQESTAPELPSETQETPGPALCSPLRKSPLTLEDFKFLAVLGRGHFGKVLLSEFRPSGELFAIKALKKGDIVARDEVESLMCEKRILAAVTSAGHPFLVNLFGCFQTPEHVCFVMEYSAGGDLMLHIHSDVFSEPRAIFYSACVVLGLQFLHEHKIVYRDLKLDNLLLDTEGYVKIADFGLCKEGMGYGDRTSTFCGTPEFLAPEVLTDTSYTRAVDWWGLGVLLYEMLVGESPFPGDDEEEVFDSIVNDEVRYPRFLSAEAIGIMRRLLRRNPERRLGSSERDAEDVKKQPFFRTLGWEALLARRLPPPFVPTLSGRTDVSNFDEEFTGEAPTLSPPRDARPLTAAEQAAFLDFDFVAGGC
UniProt Q96G03: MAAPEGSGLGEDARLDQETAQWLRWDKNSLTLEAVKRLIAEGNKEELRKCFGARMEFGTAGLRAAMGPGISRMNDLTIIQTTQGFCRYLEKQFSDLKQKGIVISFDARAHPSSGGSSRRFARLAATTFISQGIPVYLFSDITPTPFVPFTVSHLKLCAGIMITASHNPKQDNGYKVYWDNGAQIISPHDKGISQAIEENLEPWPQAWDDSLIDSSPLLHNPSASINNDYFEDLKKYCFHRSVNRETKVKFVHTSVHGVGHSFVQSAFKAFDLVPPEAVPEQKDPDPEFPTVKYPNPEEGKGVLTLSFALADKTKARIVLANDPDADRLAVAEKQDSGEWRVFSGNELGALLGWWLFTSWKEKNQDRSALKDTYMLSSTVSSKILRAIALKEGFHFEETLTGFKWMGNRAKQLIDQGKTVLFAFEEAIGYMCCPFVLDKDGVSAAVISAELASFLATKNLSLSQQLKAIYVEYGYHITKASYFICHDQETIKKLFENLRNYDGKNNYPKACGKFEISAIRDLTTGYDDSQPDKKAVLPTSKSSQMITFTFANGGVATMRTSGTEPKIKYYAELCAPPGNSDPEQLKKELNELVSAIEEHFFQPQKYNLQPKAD
UniProt Q32NB8: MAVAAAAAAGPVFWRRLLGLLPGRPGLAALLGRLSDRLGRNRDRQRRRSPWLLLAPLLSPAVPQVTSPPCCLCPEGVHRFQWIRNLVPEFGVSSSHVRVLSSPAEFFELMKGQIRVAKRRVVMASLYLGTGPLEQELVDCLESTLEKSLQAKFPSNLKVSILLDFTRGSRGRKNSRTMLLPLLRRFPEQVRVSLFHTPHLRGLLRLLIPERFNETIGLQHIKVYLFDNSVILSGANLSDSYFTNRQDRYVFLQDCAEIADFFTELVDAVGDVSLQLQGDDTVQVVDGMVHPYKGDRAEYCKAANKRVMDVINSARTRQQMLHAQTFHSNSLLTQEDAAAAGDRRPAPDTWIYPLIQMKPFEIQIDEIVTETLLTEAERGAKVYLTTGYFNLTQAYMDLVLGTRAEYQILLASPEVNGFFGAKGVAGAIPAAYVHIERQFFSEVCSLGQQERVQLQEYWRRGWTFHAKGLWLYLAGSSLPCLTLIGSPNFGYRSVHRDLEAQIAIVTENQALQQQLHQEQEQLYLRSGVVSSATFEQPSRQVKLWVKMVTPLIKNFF
UniProt Q9NRD5, whole entry, looked up: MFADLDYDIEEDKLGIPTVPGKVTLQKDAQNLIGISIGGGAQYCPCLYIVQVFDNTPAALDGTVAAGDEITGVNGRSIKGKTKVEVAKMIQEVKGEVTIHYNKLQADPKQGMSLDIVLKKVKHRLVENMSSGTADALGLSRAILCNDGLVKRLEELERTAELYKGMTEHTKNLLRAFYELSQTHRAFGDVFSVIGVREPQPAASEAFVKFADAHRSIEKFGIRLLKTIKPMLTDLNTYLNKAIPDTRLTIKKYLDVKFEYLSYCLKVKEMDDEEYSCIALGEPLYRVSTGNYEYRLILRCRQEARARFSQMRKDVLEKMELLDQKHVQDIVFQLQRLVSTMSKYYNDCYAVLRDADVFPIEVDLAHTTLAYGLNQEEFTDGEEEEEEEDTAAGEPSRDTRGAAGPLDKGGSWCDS
UniProt P53609, whole entry, looked up: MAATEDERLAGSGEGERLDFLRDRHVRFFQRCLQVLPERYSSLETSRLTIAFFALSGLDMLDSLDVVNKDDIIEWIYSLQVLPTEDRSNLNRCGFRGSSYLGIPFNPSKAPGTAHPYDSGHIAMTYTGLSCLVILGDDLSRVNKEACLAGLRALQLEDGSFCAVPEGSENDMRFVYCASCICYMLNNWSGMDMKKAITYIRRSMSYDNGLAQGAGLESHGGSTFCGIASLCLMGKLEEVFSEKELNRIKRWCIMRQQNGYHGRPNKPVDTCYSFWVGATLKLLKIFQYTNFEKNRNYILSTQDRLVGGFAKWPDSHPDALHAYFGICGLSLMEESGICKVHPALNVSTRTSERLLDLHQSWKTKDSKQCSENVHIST
UniProt P19174: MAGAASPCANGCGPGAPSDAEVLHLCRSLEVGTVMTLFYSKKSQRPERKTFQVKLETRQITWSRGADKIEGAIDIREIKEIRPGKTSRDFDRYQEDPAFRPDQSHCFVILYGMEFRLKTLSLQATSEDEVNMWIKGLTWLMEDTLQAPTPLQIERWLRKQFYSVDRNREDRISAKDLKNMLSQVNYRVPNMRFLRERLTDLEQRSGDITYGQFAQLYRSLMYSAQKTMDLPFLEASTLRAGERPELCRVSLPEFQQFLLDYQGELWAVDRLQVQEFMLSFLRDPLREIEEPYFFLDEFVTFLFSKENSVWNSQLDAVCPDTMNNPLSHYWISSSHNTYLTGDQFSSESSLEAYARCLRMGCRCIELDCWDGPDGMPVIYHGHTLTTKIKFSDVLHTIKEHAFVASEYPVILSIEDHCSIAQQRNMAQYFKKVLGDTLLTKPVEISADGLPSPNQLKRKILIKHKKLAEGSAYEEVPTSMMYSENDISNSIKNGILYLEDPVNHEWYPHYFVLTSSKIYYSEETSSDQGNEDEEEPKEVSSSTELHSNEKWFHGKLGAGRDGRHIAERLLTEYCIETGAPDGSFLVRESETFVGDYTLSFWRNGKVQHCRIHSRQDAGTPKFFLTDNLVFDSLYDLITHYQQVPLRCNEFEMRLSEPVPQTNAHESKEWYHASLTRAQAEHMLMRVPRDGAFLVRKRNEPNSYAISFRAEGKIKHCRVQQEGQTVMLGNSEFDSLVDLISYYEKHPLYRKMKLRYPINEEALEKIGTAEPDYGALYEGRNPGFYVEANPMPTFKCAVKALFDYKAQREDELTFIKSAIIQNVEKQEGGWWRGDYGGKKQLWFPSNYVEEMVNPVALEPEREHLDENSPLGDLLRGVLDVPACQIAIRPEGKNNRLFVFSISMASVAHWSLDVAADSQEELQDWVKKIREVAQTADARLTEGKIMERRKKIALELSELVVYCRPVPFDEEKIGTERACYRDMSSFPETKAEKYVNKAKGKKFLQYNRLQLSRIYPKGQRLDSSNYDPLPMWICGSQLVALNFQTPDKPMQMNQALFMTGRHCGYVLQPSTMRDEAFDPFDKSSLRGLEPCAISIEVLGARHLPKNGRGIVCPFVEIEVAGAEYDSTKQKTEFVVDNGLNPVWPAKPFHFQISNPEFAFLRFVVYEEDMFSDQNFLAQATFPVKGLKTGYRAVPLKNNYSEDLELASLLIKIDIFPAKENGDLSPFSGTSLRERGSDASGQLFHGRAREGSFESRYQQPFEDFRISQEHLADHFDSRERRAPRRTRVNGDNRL
UniProt P51178: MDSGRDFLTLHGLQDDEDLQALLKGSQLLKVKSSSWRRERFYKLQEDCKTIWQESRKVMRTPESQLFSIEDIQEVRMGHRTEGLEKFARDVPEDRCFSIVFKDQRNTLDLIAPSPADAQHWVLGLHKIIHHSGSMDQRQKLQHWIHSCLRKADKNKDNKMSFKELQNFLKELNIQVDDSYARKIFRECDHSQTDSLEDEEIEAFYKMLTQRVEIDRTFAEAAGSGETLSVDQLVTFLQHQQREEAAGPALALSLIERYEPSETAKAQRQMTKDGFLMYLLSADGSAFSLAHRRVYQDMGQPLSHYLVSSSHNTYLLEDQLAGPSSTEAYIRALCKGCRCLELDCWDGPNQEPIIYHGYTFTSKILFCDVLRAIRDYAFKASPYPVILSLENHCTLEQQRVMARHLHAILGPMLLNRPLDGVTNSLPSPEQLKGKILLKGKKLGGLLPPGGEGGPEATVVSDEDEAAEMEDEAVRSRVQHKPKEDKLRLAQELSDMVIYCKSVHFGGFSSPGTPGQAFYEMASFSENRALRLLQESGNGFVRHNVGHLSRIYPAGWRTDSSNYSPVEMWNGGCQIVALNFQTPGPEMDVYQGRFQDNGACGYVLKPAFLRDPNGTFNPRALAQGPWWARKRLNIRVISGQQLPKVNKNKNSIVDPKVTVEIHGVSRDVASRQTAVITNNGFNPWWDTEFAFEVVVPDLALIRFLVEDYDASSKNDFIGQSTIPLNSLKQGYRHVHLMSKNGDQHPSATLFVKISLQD
UniProt Q9UG56: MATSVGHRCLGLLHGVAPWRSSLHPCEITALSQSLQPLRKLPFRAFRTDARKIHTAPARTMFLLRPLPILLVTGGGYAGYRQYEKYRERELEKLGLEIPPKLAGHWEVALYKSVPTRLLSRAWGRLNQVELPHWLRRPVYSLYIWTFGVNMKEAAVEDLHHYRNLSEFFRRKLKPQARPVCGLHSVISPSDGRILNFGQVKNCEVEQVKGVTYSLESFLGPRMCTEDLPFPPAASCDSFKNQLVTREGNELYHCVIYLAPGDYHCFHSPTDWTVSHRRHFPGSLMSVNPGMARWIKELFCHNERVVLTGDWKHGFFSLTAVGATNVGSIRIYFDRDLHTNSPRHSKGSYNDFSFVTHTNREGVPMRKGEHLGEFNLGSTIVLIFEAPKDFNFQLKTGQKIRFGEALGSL
UniProt Q9NXJ5: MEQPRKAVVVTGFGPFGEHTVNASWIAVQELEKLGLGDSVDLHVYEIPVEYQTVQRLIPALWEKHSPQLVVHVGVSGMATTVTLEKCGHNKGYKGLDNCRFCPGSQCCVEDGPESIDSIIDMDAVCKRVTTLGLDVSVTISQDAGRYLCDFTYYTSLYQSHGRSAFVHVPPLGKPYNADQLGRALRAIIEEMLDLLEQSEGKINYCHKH
UniProt Q5H8A4: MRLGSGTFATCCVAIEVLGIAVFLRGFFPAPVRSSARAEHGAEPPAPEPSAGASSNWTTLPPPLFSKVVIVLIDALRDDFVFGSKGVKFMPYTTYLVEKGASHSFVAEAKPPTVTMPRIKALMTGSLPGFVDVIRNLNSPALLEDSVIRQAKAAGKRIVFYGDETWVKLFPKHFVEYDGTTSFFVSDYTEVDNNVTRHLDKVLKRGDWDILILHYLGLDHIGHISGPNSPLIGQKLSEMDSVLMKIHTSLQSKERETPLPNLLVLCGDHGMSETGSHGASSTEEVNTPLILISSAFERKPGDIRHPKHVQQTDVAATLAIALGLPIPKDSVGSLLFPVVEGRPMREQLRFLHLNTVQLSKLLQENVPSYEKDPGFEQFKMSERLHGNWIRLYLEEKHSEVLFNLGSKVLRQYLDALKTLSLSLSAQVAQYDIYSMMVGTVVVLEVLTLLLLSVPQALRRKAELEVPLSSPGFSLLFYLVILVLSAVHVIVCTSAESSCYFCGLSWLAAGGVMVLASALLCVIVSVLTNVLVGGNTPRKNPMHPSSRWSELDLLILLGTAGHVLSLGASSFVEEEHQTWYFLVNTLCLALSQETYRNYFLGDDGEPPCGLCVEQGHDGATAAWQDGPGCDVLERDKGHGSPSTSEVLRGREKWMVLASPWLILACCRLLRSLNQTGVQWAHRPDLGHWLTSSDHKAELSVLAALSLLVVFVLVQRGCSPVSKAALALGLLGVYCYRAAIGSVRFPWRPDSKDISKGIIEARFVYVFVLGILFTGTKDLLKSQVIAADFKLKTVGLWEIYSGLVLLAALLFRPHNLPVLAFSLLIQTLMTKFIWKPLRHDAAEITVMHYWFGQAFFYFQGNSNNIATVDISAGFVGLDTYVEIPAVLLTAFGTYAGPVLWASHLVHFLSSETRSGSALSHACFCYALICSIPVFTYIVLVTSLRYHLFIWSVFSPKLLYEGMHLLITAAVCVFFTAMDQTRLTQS

Experiments:
Experiment in all cases: log2 fold change, soluble protein after heating vs DMSO (PISA); higher = thermal stabilisation; K562 lysate, 10 uM; active = over 0.2 and 3.5 SD of the protein, either way, in both replicates (recomputed)
vemurafenib = compound: CCCS(=O)(=O)Nc1ccc(F)c(C(=O)c2c[nH]c3ncc(-c4ccc(Cl)cc4)cc23)c1F [vemurafenib]
Summary of the method: (§1)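 The values are log-two fold changes in thermal stability compared with solvent controls and come from duplicates. They were obtained by TMTpro 16plex LC-MS/MS, with channel sums equalised, on the supernatant after 21,000xg for 90 min. That supernatant came from crude K562 extract at 1 mg/mL protein treated with 10 μM compound for 30 min, heated for 3 min across 48°C-58°C, pooled and brought to 0.5% NP-40 at 4°C.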

[1] = compound: CCCS(=O)(=O)Nc1ccc(F)c(C(=O)c2c[nH]c3ncc(Cl)cc23)c1F
Summary of the method: as §1

barasertib = compound: CCN(CCCOc1ccc2c(Nc3cc(CC(=O)Nc4cccc(F)c4)[nH]n3)ncnc2c1)CCOP(=O)(O)O [barasertib]
Summary of the method: as §1

[2] = compound: CC[C@@H]1C(=O)N(C)c2cnc(Nc3ccc(C(=O)NC4CCN(C)CC4)cc3OC)nc2N1C1CCCC1
Summary of the method: as §1

volasertib = compound: CC[C@@H]1C(=O)N(C)c2cnc(Nc3ccc(C(=O)N[C@H]4CC[C@H](N5CCN(CC6CC6)CC5)CC4)cc3OC)nc2N1C(C)C [volasertib]
Summary of the method: as §1

[3] = compound: CCn1c(C(=O)N(C2CC2)C2CC2)cc2c3c(ncn3C)c(Nc3cc(C)n(C)n3)nc21
Summary of the method: as §1

[4] = compound: CCn1cc(-c2ccnc3[nH]c(-c4cccc(CN(C)C)c4)cc23)c(-c2ccc(NC(=O)N(C)C)cc2)n1
Summary of the method: as §1

[5] = compound: CN1CCC(CNc2ccc3ncc(-c4cccc(OC(F)(F)F)c4)n3n2)CC1
Summary of the method: as §1

saracatinib = compound: CN1CCN(CCOc2cc(OC3CCOCC3)c3c(Nc4c(Cl)ccc5c4OCO5)ncnc3c2)CC1 [saracatinib]
Summary of the method: as §1

sotrastaurin = compound: CN1CCN(c2nc(C3=C(c4c[nH]c5ccccc45)C(=O)NC3=O)c3ccccc3n2)CC1 [sotrastaurin]
Summary of the method: as §1

alvocidib = compound: CN1CC[C@H](c2c(O)cc(O)c3c(=O)cc(-c4ccccc4Cl)oc23)[C@H](O)C1 [alvocidib]
Summary of the method: as §1

Tubastatin A = compound: CN1CCc2c(c3ccccc3n2Cc2ccc(C(=O)NO)cc2)C1 [Tubastatin A]
Summary of the method: as §1

[6] = compound: CNC(=O)C1=CC=CC=C1NC2=NC(=NC=C2Cl)NC3=C(C=C(C=C3)N4CCOCC4)OC
Summary of the method: as §1

defactinib = compound: CNC(=O)c1ccc(Nc2ncc(C(F)(F)F)c(NCc3nccnc3N(C)S(C)(=O)=O)n2)cc1 [defactinib]
Summary of the method: as §1

[7] = compound: CNc1nc(-c2ccc3c(N)n[nH]c3c2)cc(N2C[C@@H](C(=O)NC3CCCCC3)CC[C@H]2C)n1
Summary of the method: as §1

encorafenib = compound: COC(=O)N[C@@H](C)CNc1nccc(-c2cn(C(C)C)nc2-c2cc(Cl)cc(NS(C)(=O)=O)c2F)n1 [encorafenib]
Summary of the method: as §1

[8] = compound: COC(=O)[C@H](CCSC)NC(=O)C1=C(C=C(C=C1)NC[C@H](CS)N)C2=CC=CC=C2
Summary of the method: as §1

alisertib = compound: COc1cc(Nc2ncc3c(n2)-c2ccc(Cl)cc2C(c2c(F)cccc2OC)=NC3)ccc1C(=O)O [alisertib]
Summary of the method: as §1

[9] = compound: COc1cc2nc(-c3cc(F)ccc3O)nc(N[C@@H]3CNC[C@H]3C(C)(C)O)c2cc1OC
Summary of the method: as §1

gefitinib = compound: COc1cc2ncnc(Nc3ccc(F)c(Cl)c3)c2cc1OCCCN1CCOCC1 [gefitinib]
Summary of the method: as §1

Measured: log2 fold change

PKN1 isoform 2 (UniProt Q16512)
active: [5] -0.483
inactive: vemurafenib 0.013 | [1] 0.049 | barasertib -0.006 | [2] 0.013 | volasertib -0.009 | [3] 0.024 | [4] -0.055 | saracatinib 0.002 | sotrastaurin -0.143 | alvocidib -0.036 | Tubastatin A -0.056 | [6] -0.001 | defactinib -0.079 | [7] -0.003 | encorafenib 0.075 | [8] 0.116 | alisertib -0.009 | [9] -0.1 | gefitinib -0.005

PIK3R2 (UniProt O00459)
inactive: vemurafenib -0.032 | [1] 0 | barasertib -0.002 | [2] 0.128 | volasertib -0.003 | [3] 0.071 | [4] -0.018 | [5] 0.289 | saracatinib -0.014 | sotrastaurin 0.091 | alvocidib 0.023 | Tubastatin A -0.086 | [6] 0.027 | defactinib 0.017 | [7] -0.009 | encorafenib 0.009 | [8] -0.225 | alisertib 0.008 | [9] 0.02 | gefitinib -0.052

PGM2 (UniProt Q96G03)
inactive: vemurafenib 0.002 | [1] -0.015 | barasertib -0.001 | [2] 0.013 | volasertib 0.036 | [3] -0.01 | [4] 0.025 | [5] 0.019 | saracatinib -0.015 | sotrastaurin -0.014 | alvocidib -0.003 | Tubastatin A 0.033 | [6] -0.011 | defactinib -0.024 | [7] -0.007 | encorafenib 0 | [8] -0.025 | alisertib -0.024 | [9] 0.017 | gefitinib -0.015

PHGDH (UniProt O43175)
inactive: vemurafenib -0.005 | [1] -0.001 | barasertib -0.049 | [2] 0.02 | volasertib -0.025 | [3] 0.016 | [4] 0.098 | [5] -0.051 | saracatinib -0.012 | sotrastaurin -0.027 | alvocidib 0.028 | [6] -0.081 | defactinib 0.022 | [7] 0.018 | encorafenib 0.006 | alisertib 0.004 | [9] 0.006 | gefitinib -0.016
active: Tubastatin A -0.415 | [8] -0.439

PGLS (UniProt O95336)
inactive: vemurafenib -0.033 | [1] -0.027 | barasertib 0.067 | [2] -0.055 | volasertib 0.027 | [3] 0.036 | [4] 0.051 | [5] -0.114 | saracatinib 0.039 | sotrastaurin 0.006 | alvocidib 0.177 | Tubastatin A 0.09 | [6] 0.061 | defactinib 0.231 | [7] 0.016 | encorafenib 0.017 | [8] 0.019 | alisertib 0.03 | [9] -0.087 | gefitinib -0.163

PHKA1 (UniProt P46020)
inactive: vemurafenib -0.021 | [1] 0.009 | barasertib 0.089 | [2] 0.044 | volasertib -0.074 | [3] 0.074 | [4] -0.067 | [5] 0.079 | saracatinib -0.009 | sotrastaurin -0.019 | alvocidib 0.047 | Tubastatin A -0.073 | [6] 0.168 | defactinib 0.08 | [7] -0.029 | encorafenib 0.004 | [8] 0.065 | alisertib -0.014 | [9] 0.084 | gefitinib 0.041

PGS1 (UniProt Q32NB8)
inactive: vemurafenib 0.052 | [1] 0.025 | barasertib 0.098 | [2] 0.001 | volasertib -0.09 | [3] 0.035 | [4] 0.024 | [5] -0.157 | saracatinib -0.004 | sotrastaurin -0.062 | alvocidib -0.019 | Tubastatin A -0.11 | [6] -0.065 | defactinib 0.05 | [7] -0.03 | encorafenib -0.03 | [8] -0.183 | alisertib 0.031 | [9] -0.14 | gefitinib -0.079

PICK1 (UniProt Q9NRD5)
inactive: vemurafenib 0.087 | [1] 0.03 | barasertib 0.139 | [2] 0.018 | volasertib -0.014 | [3] 0.01 | [4] -0.153 | [5] 0.089 | saracatinib -0.021 | sotrastaurin -0.028 | alvocidib -0.054 | Tubastatin A -0.023 | [6] 0.029 | defactinib 0.08 | [7] -0.033 | encorafenib 0.027 | [8] -0.001 | alisertib 0.023 | [9] 0.011 | gefitinib -0.104

PGGT1B (UniProt P53609)
inactive: vemurafenib -0.159 | [1] 0.004 | barasertib 0 | [2] -0.041 | volasertib 0.1 | [3] 0.006 | [4] 0.011 | [5] 0.008 | saracatinib 0.028 | sotrastaurin -0.029 | alvocidib 0.032 | Tubastatin A 0.036 | [6] -0.068 | defactinib 0.022 | [7] -0.117 | encorafenib -0.039 | alisertib -0.011 | [9] -0.032 | gefitinib -0.021
active: [8] 0.454

Copied from the entries so far (2 entries):
PHGDH (UniProt O43175)
inactive: vemurafenib -0.005 | [1] -0.001 | barasertib -0.049 | [2] 0.02 | volasertib -0.025 | [3] 0.016 | [4] 0.098 | [5] -0.051 | saracatinib -0.012 | sotrastaurin -0.027 | alvocidib 0.028 | [6] -0.081 | defactinib 0.022 | [7] 0.018 | encorafenib 0.006 | alisertib 0.004 | [9] 0.006 | gefitinib -0.016
active: Tubastatin A -0.415 | [8] -0.439

PGLS (UniProt O95336)
inactive: vemurafenib -0.033 | [1] -0.027 | barasertib 0.067 | [2] -0.055 | volasertib 0.027 | [3] 0.036 | [4] 0.051 | [5] -0.114 | saracatinib 0.039 | sotrastaurin 0.006 | alvocidib 0.177 | Tubastatin A 0.09 | [6] 0.061 | defactinib 0.231 | [7] 0.016 | encorafenib 0.017 | [8] 0.019 | alisertib 0.03 | [9] -0.087 | gefitinib -0.163

Next records

PLCG1 isoform 2 (UniProt P19174)
inactive: vemurafenib -0.035 | [1] 0.016 | barasertib 0.032 | [2] -0.096 | volasertib -0.073 | [3] 0.004 | [4] -0.159 | [5] 0.077 | saracatinib 0.004 | sotrastaurin -0.004 | alvocidib -0.035 | Tubastatin A -0.071 | [6] 0.004 | defactinib 0.01 | [7] -0.024 | encorafenib -0.005 | [8] -0.012 | alisertib 0.022 | [9] -0.013 | gefitinib -0.012

PLCD1 isoform 2 (UniProt P51178)
inactive: vemurafenib -0.019 | [1] 0.022 | barasertib 0.027 | [2] -0.015 | volasertib -0.058 | [3] 0.032 | [4] 0.051 | [5] -0.024 | saracatinib 0.003 | sotrastaurin 0.042 | alvocidib 0.007 | Tubastatin A -0.054 | [6] 0.008 | defactinib -0.024 | [7] -0.039 | encorafenib 0 | [8] 0.013 | alisertib -0.021 | [9] -0.022 | gefitinib -0.016

PISD (UniProt Q9UG56)
inactive: vemurafenib -0.025 | [1] -0.027 | barasertib 0.042 | [2] -0.036 | volasertib -0.003 | [3] -0.046 | [4] 0.029 | [5] -0.091 | saracatinib 0.024 | sotrastaurin 0.034 | alvocidib 0.038 | Tubastatin A -0.025 | [6] -0.031 | defactinib -0.099 | [7] -0.235 | encorafenib 0.044 | [8] -0.055 | alisertib -0.101 | [9] -0.024 | gefitinib -0.039

PITPNB isoform 3 (UniProt P48739)
inactive: vemurafenib -0.036 | [1] 0.03 | barasertib -0.017 | [2] -0.009 | volasertib 0.006 | [3] 0.016 | [4] -0.022 | [5] -0.075 | saracatinib -0.019 | sotrastaurin -0.003 | alvocidib 0.001 | Tubastatin A 0.009 | [6] -0.014 | defactinib 0.004 | [7] -0.055 | encorafenib -0.023 | [8] -0.008 | alisertib 0.009 | [9] -0.013 | gefitinib -0.044

PGRMC2 isoform 2 (UniProt O15173)
inactive: vemurafenib -0.001 | [1] -0.006 | barasertib 0.001 | [2] 0.024 | volasertib 0.043 | [3] -0.034 | [4] -0.03 | [5] 0.049 | saracatinib -0.015 | sotrastaurin 0.004 | alvocidib -0.02 | Tubastatin A 0.049 | [6] -0.016 | defactinib 0.021 | [7] 0.029 | encorafenib -0.007 | [8] -0.229 | alisertib 0.024 | [9] 0.02 | gefitinib 0

PGPEP1 (UniProt Q9NXJ5)
inactive: vemurafenib 0.021 | [1] 0.022 | barasertib -0.036 | [2] -0.091 | volasertib -0.027 | [3] 0.036 | [4] -0.096 | [5] 0.03 | saracatinib 0 | sotrastaurin -0.056 | alvocidib 0.05 | Tubastatin A -0.182 | [6] 0.012 | defactinib -0.032 | [7] -0.055 | encorafenib 0.02 | [8] 0.057 | alisertib -0.045 | [9] 0.01 | gefitinib -0.06

PIGG (UniProt Q5H8A4)
inactive: vemurafenib -0.096 | [1] 0.042 | barasertib 0.028 | [2] -0.012 | volasertib -0.028 | [3] -0.013 | [4] 0.156 | [5] -0.094 | saracatinib 0.003 | sotrastaurin 0.03 | alvocidib 0.034 | Tubastatin A 0.034 | [6] -0.015 | defactinib -0.025 | [7] 0.006 | encorafenib 0.023 | [8] -0.121 | alisertib -0.033 | [9] 0.003 | gefitinib 0.043
